These are yes or no findings as the source states them, for the method shown. Binding seen in cells or lysates may run through a third protein. A yes stands for co-enrichment or nearness to the bait. Other partners may have been found.

Protein sequences, listed by entry. Tags and fused reporters are not part of them. Lines headed by an entry give the natural chain unless they say otherwise; changes in a name come on top.
UniProt Q13263: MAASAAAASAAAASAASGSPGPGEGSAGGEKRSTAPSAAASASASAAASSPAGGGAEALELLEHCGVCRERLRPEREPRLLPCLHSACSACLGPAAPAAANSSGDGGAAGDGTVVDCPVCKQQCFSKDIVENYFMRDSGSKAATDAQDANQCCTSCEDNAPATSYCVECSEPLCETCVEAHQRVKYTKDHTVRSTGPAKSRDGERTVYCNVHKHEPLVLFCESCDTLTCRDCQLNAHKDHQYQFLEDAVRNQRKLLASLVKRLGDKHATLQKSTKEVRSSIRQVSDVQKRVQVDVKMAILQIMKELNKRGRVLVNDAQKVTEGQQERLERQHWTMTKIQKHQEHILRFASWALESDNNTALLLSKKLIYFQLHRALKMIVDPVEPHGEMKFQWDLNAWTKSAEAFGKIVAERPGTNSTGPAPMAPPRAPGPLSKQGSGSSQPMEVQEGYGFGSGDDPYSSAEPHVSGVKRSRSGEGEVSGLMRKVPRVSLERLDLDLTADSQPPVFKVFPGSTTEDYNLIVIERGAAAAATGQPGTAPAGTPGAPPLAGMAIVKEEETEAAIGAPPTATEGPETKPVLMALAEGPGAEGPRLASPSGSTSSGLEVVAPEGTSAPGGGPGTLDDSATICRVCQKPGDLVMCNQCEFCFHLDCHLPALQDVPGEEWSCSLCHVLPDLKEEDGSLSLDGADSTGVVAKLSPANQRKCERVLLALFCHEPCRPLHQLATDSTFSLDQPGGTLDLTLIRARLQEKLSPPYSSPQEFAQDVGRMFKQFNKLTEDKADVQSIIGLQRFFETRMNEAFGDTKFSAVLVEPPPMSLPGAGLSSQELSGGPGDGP
UniProt Q9HAU4: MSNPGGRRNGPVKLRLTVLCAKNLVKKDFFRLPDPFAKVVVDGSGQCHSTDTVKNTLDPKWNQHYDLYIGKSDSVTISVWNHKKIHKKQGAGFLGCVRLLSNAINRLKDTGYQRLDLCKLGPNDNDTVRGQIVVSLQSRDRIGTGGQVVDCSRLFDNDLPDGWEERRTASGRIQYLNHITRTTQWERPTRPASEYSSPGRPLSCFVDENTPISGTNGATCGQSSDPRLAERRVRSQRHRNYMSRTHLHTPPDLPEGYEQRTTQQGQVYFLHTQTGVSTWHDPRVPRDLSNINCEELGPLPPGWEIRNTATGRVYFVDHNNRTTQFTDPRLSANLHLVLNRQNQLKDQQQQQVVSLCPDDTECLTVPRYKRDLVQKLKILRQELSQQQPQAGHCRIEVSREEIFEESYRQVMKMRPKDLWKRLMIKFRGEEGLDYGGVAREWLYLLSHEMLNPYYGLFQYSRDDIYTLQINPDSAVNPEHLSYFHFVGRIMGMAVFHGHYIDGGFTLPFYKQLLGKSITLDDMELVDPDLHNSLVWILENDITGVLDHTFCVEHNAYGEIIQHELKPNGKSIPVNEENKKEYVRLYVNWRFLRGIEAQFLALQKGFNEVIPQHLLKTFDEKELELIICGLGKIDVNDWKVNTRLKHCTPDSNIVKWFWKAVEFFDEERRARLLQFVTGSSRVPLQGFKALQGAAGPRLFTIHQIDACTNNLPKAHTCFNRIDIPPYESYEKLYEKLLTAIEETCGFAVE

This assay has as its target N-terminal FLAG-tagged KAP1 (FLAG-KAP1), expressed in HEK-293T cells (UniProt Q13263). The experiment in a line: affinity purification with mass spectrometry; FLAG-KAP1 co-expressed with MYC-SMURF2 (WT or CG) in HEK-293T cells, immunoprecipitated with anti-FLAG resin, eluted with 8 M urea buffer, LC-MS/MS.

For the substance “MYC-SMURF2CG, catalytically-inactive SMURF2 (C716G), expressed in HEK-293T cells (from UniProt Q9HAU4 1-748) (enzyme)”, the binding result is reported as “binds”. With “MYC-SMURF2 wild-type (SMURF2WT), expressed in HEK-293T cells (from UniProt Q9HAU4 1-748) (enzyme)” the entry was “binds”.

For the origin of these results see PMC8997158.
